Hit rate of the full screen: of about 52,000 sequences, about 210 (0.4%) were called active.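 Rule for the calls: active = gene whose silencing raises cell survival under the drug, median off-target-corrected z-score across its silencing RNAs 2 or more; inactive = the rest.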 This is one part of the list.
Assay: Resistance to Poly (ADP-Ribose) Polymerase inhibitor: Gene Identification via Genome-wide siRNA Screen
Settings: mouse BRCA2 R2336H ES cells, olaparib, CellTiter-Glo viability; stronger effect = higher value
Summary of the method: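 Mouse BRCA2 R2336H ES cells were reverse-transfected with siRNA (20 nM final), treated at 48 h with 500 nM olaparib, and read by CellTiter-Glo after 72 h. Scores: MAD-based z per siRNA, median per gene, seed off-target correction.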

Sequence	z-score
CCACCAUCAAAUAUAACUATT against 9930021J03Rik	inactive: 0.126
GGAACAUAUUAUCUCGGAGTT against Cit	inactive: 0.248
GGCGCGGCUGAAAUUUGAATT against Casc1	inactive: -0.397
GCGAUCAGCAAGCUAAGCCTT against Mettl2	inactive: 0.265
CCUCUCAUGUGUGCCUAUATT against Pitpnm1	inactive: -0.634
CCAUUUAUUUGGACUUGUATT against Lig4	inactive: -1.06
CCAAGUUUCAGAAGGAUUATT against Niban	inactive: 2.46
GGUCAUCAGAAGAAUCAAGTT against Arr3	inactive: -0.0927
GGUGGUAGAUGCGGAUGUGTT against Kif3b	inactive: 1.05
CCUAAAGGGUUUAUAUGCATT against Slc26a3	inactive: -0.415
GGGCGUGGUCAACUUCAAATT against Man1c1	inactive: -0.476
GGCUUCAUUCGUAGGCCAUTT against Smcr8	inactive: 0.111
GGAGCACAAGAAGGAUAAGTT against Top1	inactive: 0.814
GCCAUGCUAGUCUUAGAAATT against A130081B01	inactive: -1.48
GGCAAAACAUGCUUGGACCTT against 4931408L03Rik	inactive: 1.57
GCUUGGUUGGAUCCUGAUUTT against Polr2g	inactive: -3.12
GCACAUCAACAUUGAUACUTT against Atp11c	inactive: 0.104
GGCAGAUGUAUGAAAUCUUTT against Fancc	inactive: 1.37
CGAAUGAAGCUGACAUUGGTT against Ssx9	inactive: 0.944
GCUUCUGUUAUGAGGCUCATT against Hif1a	inactive: -1.01
GCUCGAACUGUGUUCUAACTT against Polr3b	inactive: 0.387
CCGCUACCAACAGAGCAAATT against Trim9	inactive: 2.09
GGUAGCUUAGAGGACUAACTT against Cidec	inactive: 1.46

Sequence	z-score
GGAAACCUACUGUUGCACUTT against 5430401O09Rik	inactive: -0.0355
GGGAUCAAUUUUGAAGAAUTT against AU020939	inactive: -1.49
GGUGAAAAGCAAUCCUCAGTT against Mpn	inactive: -1.39
CCGGACCUCUGCGCAAUUUTT against Npb	inactive: -1.62
GGCCCAAUGAUUACAACAUTT against V1re7	inactive: 0.0366
GCAGCAACAUUCUUUGGAUTT against Adk	inactive: 1.08
AAUGGCAUAGGUCCUAUUATT against D9Ertd402e	inactive: -0.666
GCCAAAUAUUAUUCCUACATT against Sec63	inactive: -1.36
GAAGUGAAGAAAGUCAUCATT against Olfr1506	inactive: -0.618
GGAGAAUGACUAGGUAAUCTT against A130010J15Rik	inactive: -1.41
GGGCACUUAUGCAAGCAAATT against Pcyt1b	inactive: 0.56
CCAAAUGUAACUGGUGUAATT against 2810003C17Rik	inactive: 0.768
GGGUCAUAAAAGUUGUUCUTT against Mtmr4	inactive: -0.381
GGUCCUCAUCUGGAACCUGTT against Coro2b	inactive: 0.537
GGCACAAGAGCAAAGGCUUTT against Gmppb	inactive: -2.01
GGACAAGUAUGUCACAGCGTT against Kcnh2	inactive: 0.175
GGAAAAUGAGCUGAGGAAATT against 5430425K04Rik	inactive: 0.212
GGAAUUUCGACCAUCGUCUTT against 1810017F10Rik	inactive: 0.313
GGAUACGAUGUGCUAAGGUTT against Rars	inactive: -2.12
GCAAUUAGGACUUCAAGAGTT against Snx14	inactive: 0.225
GCUAUUGGUGCUUUUAUACTT against Olfr1198	inactive: 0.112
GGAGAGCCCUAUAGAAGUUTT against Zfp639	inactive: 0.946
GGAAAGCAGGACAAAAGGCTT against 2810422O20Rik	inactive: 2.38

Sequence	z-score
CCUGCACAGCAAAUACAGUTT against 2610019I03Rik	inactive: -0.21
GCCGAGUUAAGUUGACUUUTT against Ptpn12	inactive: -0.404
GGAGAUACUGAGUACAUUCTT against Cd38	inactive: 0.709
GGCGUAGUACUUCUAAUACTT against Rab12	inactive: -0.38
GCAGCAUUUAGCUAGACAGTT against Agtr1b	inactive: -0.525
GGACUCUUUUAUGAGUUUGTT against Lims1	inactive: 2.45
GCUAAACCCAAAAACACAATT against Sim2	inactive: 0.765
GCCUUCCAUACUUCACUACTT against Gm605	inactive: 0.415
GGAAAUGUAGUGAAGGGUGTT against Ndfip2	inactive: -0.67
GGGAAGCUAAUAAAAGCACTT against Rgs20	inactive: -0.323
GGAUCUAGAUAAAACUCAATT against Epb4.1l3	inactive: -1.57
GCUAUGUGGGUUGUGCUAUTT against Olfr1361	inactive: -0.987
GGUUCAUAGGCAACUUUCUTT against Olfr1294	inactive: -1.35
GGGCUAUGCAGACCUGUACTT against Cyb561	inactive: 1.54
CCGUAGAAGGGUUCAACACTT against BC026682	inactive: -1.41
GGACCAAAAUCUAGAAUACTT against 9330199A09Rik	inactive: -0.936
GGAUGAAUAUGGUGUUUCUTT against Rnf138	inactive: -1
GGAAAAGCUAAUCUUACUATT against D13Wsu177e	inactive: 0.855
GGUCAUAGAUGAGCUUAGUTT against 2900057D21Rik	inactive: -0.721
CCAGGAUCCAAAGAGUAUUTT against Olfr521	inactive: 0.0237
GGGCAAACGGAGGAAUGAATT against Amac	inactive: -1.81

Rewritten in CSV form: entries from further up
Sequence,z-score
GGAGAUACUGAGUACAUUCTT against Cd38,inactive: 0.709
GGCGUAGUACUUCUAAUACTT against Rab12,inactive: -0.38
GCAGCAUUUAGCUAGACAGTT against Agtr1b,inactive: -0.525
GGACUCUUUUAUGAGUUUGTT against Lims1,inactive: 2.45
GCUAAACCCAAAAACACAATT against Sim2,inactive: 0.765
GCCUUCCAUACUUCACUACTT against Gm605,inactive: 0.415
GGAAAUGUAGUGAAGGGUGTT against Ndfip2,inactive: -0.67
GGGAAGCUAAUAAAAGCACTT against Rgs20,inactive: -0.323
GGAUCUAGAUAAAACUCAATT against Epb4.1l3,inactive: -1.57
GCUAUGUGGGUUGUGCUAUTT against Olfr1361,inactive: -0.987
GGUUCAUAGGCAACUUUCUTT against Olfr1294,inactive: -1.35
GGGCUAUGCAGACCUGUACTT against Cyb561,inactive: 1.54
CCGUAGAAGGGUUCAACACTT against BC026682,inactive: -1.41
GGACCAAAAUCUAGAAUACTT against 9330199A09Rik,inactive: -0.936
GGAUGAAUAUGGUGUUUCUTT against Rnf138,inactive: -1

— PubChem BioAssay AID1347423 (Functional Genomics Laboratory (NCATS/FGL), 2020)
